Test results reported in PubChem BioAssay AID2685 (National Center for Advancing Translational Sciences (NCATS), 2010).
Some of the results follow. Shown are side measurements of this screen, not its main read-out; they come without a call. Most of these compounds were active or inconclusive in the main read-out, so they are no random draw. The note in brackets gives the kind of curve behind each potency; many fits are weak.

Experiment: qHTS Assay for Lipid Storage Modulators in Drosophila S3 Cells;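 for cell number change: cells counted by Cell Tracker Red CMTPX staining in the red channel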
Conditions: BODIPY lipid droplet fluorescence, 18-24 h; for cell number change: measured here: cell count max response, cells fed with added oleic acid
Procedure, shortened: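 Drosophila S3 cells got compounds at several concentrations plus oleic acid (400 uM solution). Laser-scanning cytometry with 488 nm excitation read lipid droplets at 500-530 nm and cells at 575-640 nm. Percent activity was relative to 20 uM Triacsin C.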

[1] = measured here: lipid fluorescence (Fed channel) AC50, cells fed with added oleic acid
[2] = measured here: cell number channel AC50, cells fed with added oleic acid

For Cc1ccc([N+](=O)[O-])cc1-c1ccc(/C=N\n2nnnc2N)o1, the cell number change was -3.45% and the AC50 [1] was 29.1 µM [rising, partial curve].
With Cc1ccc(C(C(=O)NCc2ccco2)N(C(=O)CNC(=O)c2cccs2)c2c(C)cccc2C)cc1 (stereo unspecified) the cell number change was -52.8%, the AC50 [2] was 2.59 µM [falling, full curve] and the AC50 [1] was 2.06 µM [falling, partial curve, poor fit].
For O=C1OC(c2ccccc2)=N/C1=C\C=C\c1ccccc1[N+](=O)[O-], the cell number change was -24.2% and the AC50 [1] was 5.8 µM [rising, partial curve].
COc1ccc(/C=C/C(=O)N(CCC(N)=O)c2ccccc2)cc1S(=O)(=O)N1CCOCC1 gave a cell number change of -5.22%.
Compound COC(=O)C1=C(NC(=O)c2ccc(C)cc2)CCS1 has a cell number change of -14.1%.
In the case of Cc1ccc(C(=O)Nc2cccc([N+](=O)[O-])c2)cc1S(=O)(=O)Nc1cccc(C(=O)O)c1, the cell number change is reported as -1.58%.
For CC1(C)CC(=O)C=C(c2ccc(F)cc2OCc2ccccc2)C1, the AC50 [1] was 0.731 µM [falling, partial curve, poor fit].
With CCOC(=O)N1CCN(C(=O)c2cc3cc(C)ccc3[nH]2)CC1 the cell number change was -2.47% and the AC50 [1] was 29.1 µM [rising, single point].
In the case of c1ccc(CCCCN2C(Nc3ccccc3)=NC[C@@H]2Cc2ccccc2)cc1, the cell number change is reported as 15.3% and the AC50 [1] is reported as 29.1 µM [falling, single point].
In the case of COc1ccc(NS(=O)(=O)c2cnc[nH]2)cc1, the cell number change is reported as 3.01% and the AC50 [1] is reported as 32.6 µM [rising, single point].
For Cc1cc(C(=O)CN2C(=O)c3ccccc3S2(=O)=O)c(C)n1C(C)C, the cell number change was 32.1%, the AC50 [2] was 0.461 µM [rising, full curve, poor fit] and the AC50 [1] was 1.3 µM [rising, full curve].
With C=CCn1c(SCC(=O)Nc2cccnc2Cl)nnc1-c1ccc(C(C)(C)C)cc1 the cell number change was -17.2%, the AC50 [2] was 6.51 µM [falling, single point] and the AC50 [1] was 6.51 µM [falling, single point].
In the case of Cn1c(SCC(=O)NC2CCCC2)nnc1-c1ccco1, the cell number change is reported as -2.94% and the AC50 [1] is reported as 6.51 µM [falling, single point].
In the case of COc1ccc(Br)cc1CNC(=O)CCNC(=O)Cn1ccc2ccccc2c1=O, the AC50 [2] is reported as 0.731 µM [rising, full curve] and the AC50 [1] is reported as 0.411 µM [rising, full curve, poor fit].
With COc1cc2c(cc1NC(=O)COC(=O)C1CC(=O)N(Cc3ccco3)C1)oc1ccccc12 (stereo unspecified) the cell number change was 30.9% and the AC50 [2] was 0.92 µM [rising, full curve, poor fit].
With CCOC(=O)c1c(NC(=S)NNS(=O)(=O)c2ccc(Br)cc2)sc2c1CCCCC2 the cell number change was -1.62% and the AC50 [2] was 7.31 µM [rising, single point].
